In all, about 52,000 sequences went through this assay and about 210 (0.4%) were called active.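 Rule for the calls: active = gene whose silencing raises cell survival under the drug, median off-target-corrected z-score across its silencing RNAs 2 or more; inactive = the rest.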 Some of the results follow.

This experiment can be described thus: Resistance to Poly (ADP-Ribose) Polymerase inhibitor: Gene Identification via Genome-wide siRNA Screen. To be noted: mouse BRCA2 R2336H ES cells, olaparib, CellTiter-Glo viability; hits give high values. The gist of the method: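 Mouse BRCA2 R2336H ES cells were reverse-transfected with siRNA (20 nM final), treated at 48 h with 500 nM olaparib, and read by CellTiter-Glo after 72 h. Scores: MAD-based z per siRNA, median per gene, seed off-target correction.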
For the sequence GGAUGAAAUGGAAGAAGAUTT against Barx2, the z-score is inactive: -1.55.

Regarding GCAUAUUUGCUCCAUUGAUTT against Olfr1162, the z-score was inactive: -0.708. The same measure for GGAUGAUUUCCAGAUCCAGTT against Vmp: inactive: -0.433; for GGGAAUUUACCAAGUACCCTT against Nedd9: inactive: -1.05. The same measure for GAUUCAACCUGUCCAAGCUTT against Nat6: inactive: 0.907; for “GGGAAUAUGUCUUGUGAUATT against 5330420D20Rik”: inactive: 0.347. As for GUGACACCUUUAUGGAGAGTT against Olfr1271, the figure is inactive: 1.01. For the sequence CCUACAGUACUUCAAGCGGTT against Hip1, the z-score is inactive: 0.956.

On to GUAACUCAGCAUUUGAUACTT against Krtap16-5, for which the z-score was inactive: 0.115. Take GCAGCCUCUUCUAUUUGGCTT against Olfr354: the z-score is inactive: 0.183.

GGAUAUCCAAGCUUUUGAATT against Dnajc9: the z-score is inactive: 1.08. “GGAGAUUGGGAUCAAUUAGTT against B130022O04Rik”: the z-score is inactive: 1.13. Take GCUUUGUUCUAAAUUCAUGTT against Cd2ap: the z-score is inactive: 0.744. With “GGACAUUUUACAGACUCCUTT against 4833405L16Rik”, the z-score is inactive: -1.69.

For the sequence GCGUGAAGUCUUUCUGGAGTT against Usp20, the z-score was inactive: 0.259. With GGAGCUUUUGGACAUUUAUTT against Laptm4a, the z-score is inactive: -0.109. As for GGUGGAAGAGGAGAGUGAATT against Ncl, the figure is inactive: 1.87; as for GCCUAUGCUUAAUUAGCAUTT against Farp1, inactive: 0.184. As for CGGCAUCCAGUCUCAGAUGTT against Coch, the figure is inactive: 0.728; as for GGUCUUUAGCAAAUUGUUCTT against Lrrc6, inactive: 0.951; as for GGGCUUUCAUUCUUGUAUCTT against Olfr68, inactive: 0.329. In the case of GGACUUCUUCUUUAGCAGATT against Ddit4l, the z-score is inactive: 0.616. In the case of “GCUAUUCUGAUGCGUGGAGTT against 2310002F18Rik”, the z-score was inactive: -0.0159. Consider “GGAUGACACCAAGAAAUAUTT against 6430402L03Rik”, for which the z-score is inactive: -1.2. As to “GCACGCAGACAAAAUGGGCTT against 4931433A13Rik”, the z-score was inactive: -0.237. For CCUUCUCAAGUUCGACGUGTT against Mafb, the z-score was inactive: 0.452. Turning to CCUUUAGCCAGACCAUUGCTT against U2af1, the z-score is inactive: -2.52.

GCUAGCUCGUGUGAUGUUUTT against Peo1: the z-score is inactive: -2.89. Consider GGAAAACUAUCUCCUUUUGTT against Olfr716, for which the z-score is inactive: 0.364.

For the sequence GGUUGACCUUUAAGUUAAGTT against Tgfa, the z-score was inactive: -0.62. As to GCCACGAAGACUAUAUAAGTT against Blvra, the z-score was inactive: 0.323. Regarding CCUGAACGUGAGUGGAGAATT against Man1c1, the z-score is inactive: -1.41.

GCAAGAUUUUGACCAAAUGTT against Slc30a9: the z-score was inactive: -0.491. The same measure for CCAGCAAGAUAAUGGUAUCTT against Grin2a: inactive: -0.325; for “CCACUUUCUAGAAAUCCUATT against 5730578N08Rik”: inactive: 1.09. As to GCCUGCACUUGCUAAGUUGTT against Pla2g5, the z-score was inactive: -0.284. Consider “GGUGUUUGUUACCAGUAGCTT against 4933428G20Rik”, for which the z-score is inactive: 0.085. Take GAGUCCUUGGUACUUUUCCTT against Olfr166: the z-score was inactive: 0.144.

Regarding CCCAGAACAUCACAUGGGUTT against Olfr464, the z-score was inactive: -0.657.

Turning to GGCUGACUUUCUGUCACAGTT against Olfr655, the z-score was inactive: -0.809.

For GAAGGUGAAGUGCAGGAAGTT against Fxyd7, the z-score was inactive: -0.353. Regarding GCCUUUGAUUUGAUUUCAUTT against Olfr1047, the z-score was inactive: -0.68. GGUUUGAAUUCAAGUUCAUTT against Klhl5: the z-score was inactive: 0.751. On to GCAGUGUAAUGUGGCCUACTT against Rorc, for which the z-score is inactive: 0.488. With GCCAUUACCCAAGAACUUUTT against BC048390, the z-score was inactive: 0.73. As for GGAUAAUAGGAACAAUCUGTT against Sval1, the figure is inactive: 1.44; as for GGCUGAGCUGCGCAACAAATT against Gas8, inactive: -0.728. GGAGGAGGACUCAAUCUCATT against Hps5: the z-score is inactive: 0.518. Turning to GGAUCUGCCUACACCUACATT against BC061928, the z-score is inactive: -1.98. For “CGUUAGUCUGUGAAUGCACTT against 2310044H10Rik”, the z-score is inactive: 0.39.

For the sequence “GCUAUGUCAUAGUUCAGCCTT against 2410004A20Rik”, the z-score is inactive: 0.26. With CCCUGGAUGAAAAUGACAATT against Cdh24, the z-score was inactive: 0.414.

Turning to CGAGCUAACAAACUUGAACTT against Foxn2, the z-score was inactive: -0.646.

As for CCAAUGGUCAGGAGUGUAGTT against Prpsap2, the z-score was inactive: -2.93.

On to GCAAAUCCCAGCUCAAUGUTT against BC005471, for which the z-score was inactive: -0.742.

For “GCAAAAAGGCAGUAUUCUATT against 2410012H02Rik”, the z-score was inactive: 1.67. GGACAGAAAGGUACCCUUATT against Slc30a5: the z-score was inactive: 0.0285. Turning to CCAUAAGCUACCAUUUCGATT against Mcsp, the z-score was inactive: 0.148.

GGGACUCACAAUUGUAGAATT against Efemp1: the z-score is inactive: 0.321. Consider CCGGUAUUUAGGAACUGCCTT against Irak2, for which the z-score is inactive: 0.74. The same measure for “GCCUCUGGCAGAGAAAAGATT against 4930579K19Rik”: inactive: 0.164. On to “GGACAUCUAACAAAGCUCUTT against A130070M06”, for which the z-score was inactive: -1.63. Take CCAGCUUUUCCGAAUCAAUTT against Galnt7: the z-score is inactive: 0.473. Regarding CCAAUAUUUGGGAUACUGGTT against Sacm1l, the z-score is inactive: 0.486. CCGUGGAACUUAAAUAGUUTT against Pard6g: the z-score was inactive: 0.448.

Consider “GGAGCAGCAUCCACACUUATT against E230015B07Rik”, for which the z-score was inactive: -1.74.

The record behind these values is PubChem BioAssay AID1347423 (Functional Genomics Laboratory (NCATS/FGL), 2020).
